In PMC8115616:

Biological target: RsbS (bacterial two-hybrid fusion) (Mycobacterium marinum (strain CCUG20998)) (UniProt B2HK91)
Test: two-hybrid; bacterial two-hybrid system (BACTH); blue colonies indicated that the two polypeptides did interact; the two proteins expressed from different plasmids with different copy numbers

RsbR (bacterial two-hybrid fusion) (from UniProt B2HK90)
binding: binds

No constants are given. Whether binding was seen depends on the method and setting. Binding calls can cover weak binding; strength is not graded here.
